# Values from PubChem BioAssay AID1224828 (NIAID, 2016).
# Purpose: 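Regulators linking TLR4 signalling to p65 nuclear translocation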 (primary screen)
# Cells: mouse RAW264.7 G9 macrophage reporter cells (GFP-p65, Tnf promoter-mCherry)
# Reagents: siRNA pool against mouse genes, 100 nM
# Timing: 2 days siRNA transfection, then 40 min LPS before fixation
# Challenge: LPS (Salmonella minnesota R595) at 10 ng/ml
# Measured: 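Imaged p65 nuclear translocation ratio, normalised to the plate median, converted to robust z-scores and averaged across two replicates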
# Direction: p65 translocation robust z-score: higher = more nuclear NF-kappaB p65 after LPS than the plate median; nuclear/cytoplasmic p65 ratio: higher = more nuclear NF-kappaB p65
# Rule for the call: 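Called active when z exceeds 3.3 or falls under -1.56 (median of Tlr4 controls), giving activity score of at least 50; no calls for control wells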
# Calls: active = hit (p65 shift raised or lowered); inactive = no clear change
# In all, the deposit lists about 17,000 reagents; shown is a part drawn at random. Of all reagents, 762 (4.5%) are marked active. 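Active calls include both raised and lowered p65 entry, mostly lowered; wells with fewer than 50 cells lack a z-score.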 Raw values vary from plate to plate and are shown uncorrected.
Gene,PubChem SID,p65 translocation robust z-score,"nuclear/cytoplasmic p65 ratio, rep 1","nuclear/cytoplasmic p65 ratio, rep 2",low cell count flag,Call
Cyp2ab1,SID315478315,-0.03,1.6,1.47,enough cells to score,inactive
Efhb,SID315477686,1.89,1.51,1.51,enough cells to score,inactive
Cacng4,SID315471211,-0.37,1.54,1.66,enough cells to score,inactive
Smg6,SID315478056,-0.11,1.71,1.52,enough cells to score,inactive
Rhbdd1,SID315475396,0.09,1.27,1.35,enough cells to score,inactive
Txk,SID315469886,-1,1.49,1.29,enough cells to score,inactive
Ca13,SID315474385,-1.53,1.34,1.56,enough cells to score,inactive
Slc12a5,SID315471718,0.18,1.39,1.31,enough cells to score,inactive
Leap2,SID315480726,-0.12,1.52,1.42,enough cells to score,inactive
Elob,SID315473157,-0.31,1.45,1.5,enough cells to score,inactive
Pkd2,SID315468549,0.31,1.49,1.49,enough cells to score,inactive
Rhobtb2,SID315479886,6.02,1.56,3.13,enough cells to score,active
Taf6l,SID315478447,0.56,1.51,1.69,enough cells to score,inactive
Ngp,SID315468171,-0.56,1.7,1.5,enough cells to score,inactive
Hnrnpl,SID315467246,-1.05,1.44,1.44,enough cells to score,inactive
Sf3b5,SID315472231,,1.23,1.12,fewer than 50 cells per well; well left out of scoring,inactive
Hexa,SID315467185,-1.15,1.26,1.25,enough cells to score,inactive
Htra3,SID315475585,-1.77,1.21,1.28,enough cells to score,active
Abca2,SID315465231,0.66,1.66,1.83,enough cells to score,inactive
1700019M22Rik,SID315473803,0.68,1.53,1.51,enough cells to score,inactive
Abca9,SID315478098,0.84,1.76,1.79,enough cells to score,inactive
Zfp184,SID315477436,,1.53,1.29,fewer than 50 cells per well; well left out of scoring,inactive
Gan,SID315477586,1.31,1.58,1.57,enough cells to score,inactive
Lgalsl,SID315478009,-1.37,1.32,1.24,enough cells to score,inactive
Dusp2,SID315466407,-0.65,1.6,1.29,enough cells to score,inactive
Uggt2,SID315472440,-0.11,1.28,1.51,enough cells to score,inactive
Col13a1,SID315466048,0.16,1.55,1.86,enough cells to score,inactive
Krt88,SID315472362,-0.3,1.36,1.37,enough cells to score,inactive
Chmp2a,SID315473679,0.21,1.62,1.43,enough cells to score,inactive
4933421I07Rik,SID315474194,0.01,1.36,1.39,enough cells to score,inactive
Gpx7,SID315472957,-0.37,1.68,1.4,enough cells to score,inactive
Adarb1,SID315476912,-0.39,1.55,1.62,enough cells to score,inactive
Bmyc,SID315476642,,1.08,1.35,fewer than 50 cells per well; well left out of scoring,inactive
Nectin4,SID315474302,1.03,1.72,1.61,enough cells to score,inactive
Map3k4,SID315470384,-0.08,1.77,1.29,enough cells to score,inactive
Txnl1,SID315471061,,1.1,0.895,fewer than 50 cells per well; well left out of scoring,inactive
Dedd2,SID315472987,-1.11,1.35,1.45,enough cells to score,inactive
Snhg16,SID315472346,,1.33,1,fewer than 50 cells per well; well left out of scoring,inactive

Continued; the last 3 above are carried over.
Gene,PubChem SID,p65 translocation robust z-score,"nuclear/cytoplasmic p65 ratio, rep 1","nuclear/cytoplasmic p65 ratio, rep 2",low cell count flag,Call
Txnl1,SID315471061,,1.1,0.895,fewer than 50 cells per well; well left out of scoring,inactive
Dedd2,SID315472987,-1.11,1.35,1.45,enough cells to score,inactive
Snhg16,SID315472346,,1.33,1,fewer than 50 cells per well; well left out of scoring,inactive
Trim30b,SID315479740,0.55,1.45,1.6,enough cells to score,inactive
Eif4e3,SID315472700,,1.33,1.39,fewer than 50 cells per well; well left out of scoring,inactive
Ascl1,SID315467833,0.36,1.7,1.64,enough cells to score,inactive
Tomm34,SID315472866,,1.26,1.2,fewer than 50 cells per well; well left out of scoring,inactive
Ttbk1,SID315476560,,1.13,1.21,fewer than 50 cells per well; well left out of scoring,inactive
Ace2,SID315473955,1.02,1.84,1.7,enough cells to score,inactive
Oas1f,SID315479668,-0.31,1.67,1.48,enough cells to score,inactive
Sirt3,SID315472098,-0.47,1.37,1.18,enough cells to score,inactive
Zfp7,SID315478278,0.16,1.57,1.49,enough cells to score,inactive
Tex11,SID315475840,0.44,1.79,1.24,enough cells to score,inactive
Adam10,SID315465284,0.02,1.6,1.64,enough cells to score,inactive
Abca4,SID315465230,-0.12,1.72,1.47,enough cells to score,inactive
Npm1,SID315468223,,1.35,1.93,fewer than 50 cells per well; well left out of scoring,inactive
Arih1,SID315470181,0.41,1.72,1.64,enough cells to score,inactive
Ergic2,SID315473038,-0.76,1.3,1.31,enough cells to score,inactive
Pkmyt1,SID315480812,-0.47,1.62,1.32,enough cells to score,inactive
Mtrex,SID315474493,,1.33,1.45,fewer than 50 cells per well; well left out of scoring,inactive
Spata31d1a,SID315474496,,1.39,1.51,fewer than 50 cells per well; well left out of scoring,inactive
Frmd5,SID315478639,,1.11,1.45,fewer than 50 cells per well; well left out of scoring,inactive
Stxbp6,SID315478129,-0.15,1.32,1.21,enough cells to score,inactive
Nrg4,SID315475879,-1.51,1.48,1.57,enough cells to score,inactive
